Results deposited as PubChem BioAssay AID1259281 (Sanger Institute, 2017).
Shown is a random part of 794 reagents. 22 of all reagents (2.8%) count as active. 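Calls rest on knock-down alone only; drug synergy scores play no part in them.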 Entries without a mark were called inactive. No viability above 1 is reported: the scale is capped. Not all columns of the deposit are shown. Not stated in the record: the amount of reagent, the time to read-out.

- Aim: 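Find knock-downs that kill colorectal cancer cells alone or strengthen targeted drugs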 (primary screen)
- Cells: human COLO678 colorectal cancer cell line
- Reagents: siRNA pool against human genes
- Conditions: anchor drugs at fixed doses: BYL719 1 µM, cetuximab 5 µg/ml or trametinib 10 nM; DMSO vehicle for the siRNA-alone arm
- Detection: 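Cell viability compared with non-targeting pool wells, averaged over replicates; knock-down-alone effect also as robust z-score; synergy scores set knock-down plus drug against expected joint effect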
- Scale: robust z-score, siRNA alone: higher = more viable cells; strongly negative means essential; viability, siRNA alone: higher = more surviving cells
- Call rule: 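Called essential (knock-down alone) if knock-down by itself drops cell number to a robust z-score under -3; all others no change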
- Meaning of the calls: active = essential (knock-down alone); inactive = no change

EIF2AK1 (GeneID 27102) gave robust z-score, siRNA alone 0.473; viability, siRNA alone (fraction of control) = 1. After knock-down of GRK6 (GeneID 2870) the results were robust z-score, siRNA alone 0.473; viability, siRNA alone (fraction of control) = 1. After knock-down of CDC73 (GeneID 79577) the results were robust z-score, siRNA alone 0.21; viability, siRNA alone (fraction of control) = 0.992. After knock-down of NADK (GeneID 65220) the results were robust z-score, siRNA alone 0.473; viability, siRNA alone (fraction of control) = 1. With knock-down of MAPK14 (GeneID 1432) the results were robust z-score, siRNA alone 0.473; viability, siRNA alone (fraction of control) = 1. Knock-down of GRK7 (GeneID 131890) gave: robust z-score, siRNA alone 0.473; viability, siRNA alone (fraction of control) = 1.

For CSNK1D (GeneID 1453), the entry reads robust z-score, siRNA alone -0.799; viability, siRNA alone (fraction of control) = 0.96. Against MYO3B (GeneID 140469), the values are robust z-score, siRNA alone 0.473; viability, siRNA alone (fraction of control) = 1. Against ALPK3 (GeneID 57538), the values are robust z-score, siRNA alone 0.473; viability, siRNA alone (fraction of control) = 1. CHEK1 (GeneID 1111) scored robust z-score, siRNA alone -0.772; viability, siRNA alone (fraction of control) = 0.96. For FGFR2 (GeneID 2263), the entry reads robust z-score, siRNA alone 0.473; viability, siRNA alone (fraction of control) = 1. Knock-down of STK3 (GeneID 6788) resulted in: robust z-score, siRNA alone 0.473; viability, siRNA alone (fraction of control) = 1.

Against CAMK1D (GeneID 57118), the values are robust z-score, siRNA alone 0.473; viability, siRNA alone (fraction of control) = 1. With knock-down of KSR2 (GeneID 283455), the record shows robust z-score, siRNA alone 0.473; viability, siRNA alone (fraction of control) = 1. EPHA5 (GeneID 2044) gave robust z-score, siRNA alone -1.22; viability, siRNA alone (fraction of control) = 0.946. ETNK1 (GeneID 55500) gave robust z-score, siRNA alone 0.473; viability, siRNA alone (fraction of control) = 1. Against CKM (GeneID 1158), the values are robust z-score, siRNA alone 0.473; viability, siRNA alone (fraction of control) = 1. Against NRBP2 (GeneID 340371), the entry reads robust z-score, siRNA alone -0.0734; viability, siRNA alone (fraction of control) = 0.983.

Depletion of DBF4 (GeneID 10926) came out at: robust z-score, siRNA alone -0.478; viability, siRNA alone (fraction of control) = 0.97. WNK2 (GeneID 65268) scored robust z-score, siRNA alone 0.473; viability, siRNA alone (fraction of control) = 1. Against PLK4 (GeneID 10733), the values are robust z-score, siRNA alone 0.473; viability, siRNA alone (fraction of control) = 1. Silencing of RPS6KA4 (GeneID 8986) resulted in: robust z-score, siRNA alone 0.473; viability, siRNA alone (fraction of control) = 1. After knock-down of BRAF (GeneID 673), the screen gave robust z-score, siRNA alone -0.262; viability, siRNA alone (fraction of control) = 0.977. Silencing of PRKAR2B (GeneID 5577) resulted in: robust z-score, siRNA alone -1.81; viability, siRNA alone (fraction of control) = 0.927.

After knock-down of ALK (GeneID 238) the results were robust z-score, siRNA alone 0.473; viability, siRNA alone (fraction of control) = 1. TRPM7 (GeneID 54822) gave robust z-score, siRNA alone -1.5; viability, siRNA alone (fraction of control) = 0.937. After knock-down of TEX14 (GeneID 56155) the results were robust z-score, siRNA alone 0.473; viability, siRNA alone (fraction of control) = 1. For MAPK9 (GeneID 5601), the values are robust z-score, siRNA alone 0.473; viability, siRNA alone (fraction of control) = 1.

Look-ups from above.
Under “robust z-score, siRNA alone”, MYO3B (GeneID 140469) is entered as 0.473
Under “robust z-score, siRNA alone”, GRK6 (GeneID 2870) has 0.473
TRPM7 (GeneID 54822), robust z-score, siRNA alone → -1.5
Under “robust z-score, siRNA alone”, MAPK14 (GeneID 1432) reads 0.473
